Experimental data published in patent publication US7173010B2, “Orphanin FQ receptor” (Regents of the University of Michigan, priority 2003, dated 2007).
For some assays here: Not every detail of the peptide structures is certain; ends, links or a residue may be inferred. For at least one compound, name, drawing or mass did not settle the structure. No end group written: not given here.

Key:
[1] = system: circular muscle strips of distal colon; experiment: Spontaneous contraction of circular muscle strips of distal colon from rats with postoperative ileus, in vitro; design: species or system rat; conditions: 10^−7 mol/L; strips from rats with PI, 4 h after surgery
Procedure: In vitro and in vivo colonic motility studies were performed using a known rat model of PI. Rats equipped with a colonic cannula underwent a sham operation or laparotomy plus simple cecum manipulation. Circular muscle strips of distal colon were studied in vitro 4 h after surgery. Cecum manipulation reduced spontaneous colonic muscle contraction by 50% compared to sham operation. […] Similarly, OFQ (10^−7 mol/L) reversed the inhibitory effects; contraction increased 450±60% over basal. […] ATP in myenteric neurons increased 2.5-fold, as measured by quinacrine immunofluorescence. In response to electrical field stimulation, ATP release (luciferase assay) from colonic tissue after cecum manipulation was 50% more than after sham operation. In vivo measurement of colonic transit using carmine migration was performed 4 h after cecum manipulation. In sham-operated rats, carmine migrated 90.8±6.5% of the colon length in 2 h. Cecum manipulation slowed transit 68±5% compared to sham operation. OFQ dose-dependently reversed delayed colonic transit evoked by cecum manipulation (0.5 and 1 nmol/L OFQ improved transit to 76±4% and 94±3%). […] These changes contribute to delayed colonic transit. OFQ, a potent inhibitor of purinergic transmission, reversed PI in rats.

colonic transit = experiment: Colonic transit (geometric center) after subcutaneous administration; assay type: in vivo; conditions: baseline 5.11±0.12
colonic contractions = experiment: Colonic contractions after infusion of peptide; assay type: in vivo
OFQ-R point mutants [2] = experiment: OFQ binding in Cos-7 cells transfected with point-mutated OFQ-R genes; conditions: point mutations D206V and A213V (2nd extracellular loop)
rat model of PI = experiment: In vivo colonic transit by carmine migration in rat model of postoperative ileus (cecum manipulation); conditions: 4 h after cecum manipulation, sham 90.8±6.5% of colon length in 2 h
OFQ-R point mutants [3] = experiment: OFQ inhibition of forskolin stimulated cAMP production, mutated OFQ-R genes; assay type: cell-based
[4] = system: nontransfected Cos-7 cells; experiment: Specific OFQ binding in nontransfected Cos-7 cells

| Compound | contraction increase over basal [1] [%] | colonic transit, geometric center (colonic transit; 1 nmol/kg) | colonic transit, geometric center (colonic transit; 3 nmol/kg) | type of contractions induced (colonic contractions; infusion 100 nmol/kg/min) | OFQ binding (OFQ-R point mutants [2]) | colonic transit (carmine migration) after cecum manipulation (rat model of PI; 0.5 nmol/L OFQ) [%] | colonic transit (carmine migration) after cecum manipulation (rat model of PI; 1 nmol/L OFQ) [%] | ability of OFQ to inhibit cAMP (OFQ-R point mutants [3]; F212V and RRITR 256-260V5, binding not affected) | OFQ's inhibitory action on forskolin stimulated cAMP production (OFQ-R point mutants [3]; NT, Y207V, RRLR237-240V4 (3IL) and ET292-293V2 (3EL)) | Specific OFQ binding [4] [fmol/mg protein] | potency in stimulating contractions compared with full peptide Orphanin FQ(1–17) (colonic contractions; in vivo) |
| --- | --- | --- | --- | --- | --- | --- | --- | --- | --- | --- | --- |
| CC(C)C[C@H](NC(=O)[C@H](CCCCN)NC(=O)[C@H](CCCN=C(N)N)NC(=O)[C@H](C)NC(=O)[C@H](CO)NC(=O)[C@H](CCCCN)NC(=O)[C@H](CCCN=C(N)N)NC(=O)[C@H](C)NC(=O)CNC(=O)[C@@H](NC(=O)[C@H](Cc1ccccc1)NC(=O)CNC(=O)CNC(=O)[C@@H](N)Cc1ccccc1)[C@@H](C)O)C(=O)N[C@@H](C)C(=O)N[C@@H](CC(N)=O)C(=O)N[C@@H](CCC(N)=O)C(=O)O [OFQ17] | 450±60 | 6.89±0.14 | 7.13±0.21 | induced giant migrating contractions | abolished | 76±4 | 94±3 | abolished the ability of OFQ to inhibit cAMP | did not alter | 28±14 |  |
| FGGFTGARKSA [OFQ11] |  |  |  |  |  |  |  |  |  |  | did not stimulate contractions |
